Measured values as given in the supplement of paper PMC12282887.

System: Escherichia coli BW25113
Test: growth (OD600 area under curve, 8 h) (OD600 x h); higher = more growth
Protocol: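 E. coli BW25113 reporter strains (wild type, ΔmarA, ΔsoxS, Δrob, each carrying one of 8 lux reporter plasmids) were grown in 40 µl LB in 384-well plates at 37°C, 800 rpm, with each compound at 4 two-fold concentrations, in biological duplicates. Growth is the baseline-corrected OD600 area under the curve over 8 h (0-8 h WT, 1-9 h deletion strains).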

O=c1[nH]c(=O)c2[nH]c(O)nc2[nH]1 [Sodium urate]
growth
Details	reporter plasmid: EVC	reporter plasmid: acrABp	reporter plasmid: marRABp	reporter plasmid: micFp	reporter plasmid: ompFp	reporter plasmid: robp	reporter plasmid: soxSp	reporter plasmid: tolCp
28.4 µg/ml, genetic background: wild type	3.22	3.15	3.17	3.09	3.02	3.21	3.01	2.96
28.4 µg/ml, genetic background: ΔmarA	2.86	4.28	3.49	3.48	3.24	3.59	2.85	3.02
28.4 µg/ml, genetic background: Δrob	3.02	2.99	3.257	3.02	2.8	2.78	2.75	2.79
28.4 µg/ml, genetic background: ΔsoxS	3.39	3.3	3.28	2.99	3.09	3.31	3.06	3.09
56.8 µg/ml, genetic background: wild type	3.122	2.99	3.28	2.88	3.11	3.33	2.85	2.92
56.8 µg/ml, genetic background: ΔmarA	2.79	4.14	3.51	3.23	3.26	4.04	2.66	2.88
56.8 µg/ml, genetic background: Δrob	2.92	2.86	3.36	2.72	2.93	2.73	2.5	2.6
56.8 µg/ml, genetic background: ΔsoxS	3.33	3.47	3.39	2.9	3.246	3.15	3	3.22
113.7 µg/ml, genetic background: wild type	3.14	3.06	3.27	3.09	3.16	3.3	2.84	3.04
113.7 µg/ml, genetic background: ΔmarA	2.95	3.98	3.39	3.36	3.23	3.76	2.817	3.05
113.7 µg/ml, genetic background: Δrob	3.1	3.08	3.52	3.04	2.95	2.77	2.75	2.91
113.7 µg/ml, genetic background: ΔsoxS	3.38	3.56	3.38	3.04	3.325	3.194	2.99	3.19
227.3 µg/ml, genetic background: wild type	3.09	2.68	3.07	2.75	3.06	2.8	2.72	3.075
227.3 µg/ml, genetic background: ΔmarA	2.76	3.558	3.11	3.24	3.22	3.6	2.52	2.85
227.3 µg/ml, genetic background: Δrob	2.88	2.55	3.21	2.79	2.72	2.395	2.53	2.81
227.3 µg/ml, genetic background: ΔsoxS	3.12	3.169	3.07	2.79	2.96	2.56	2.79	3.27

CN[C@@H]1[C@H](O)[C@H](NC)[C@H]2O[C@@]3(O)C(=O)C[C@@H](C)O[C@H]3O[C@@H]2[C@H]1O [Spectinomycin]
growth
Details	reporter plasmid: EVC	reporter plasmid: acrABp	reporter plasmid: marRABp	reporter plasmid: micFp	reporter plasmid: ompFp	reporter plasmid: robp	reporter plasmid: soxSp	reporter plasmid: tolCp
0.62 µg/ml, genetic background: wild type	2.89	3.089	3.01	3.14	2.89	3	3	2.98
0.62 µg/ml, genetic background: ΔmarA	3.44	3.64	3.46	3.24	3.38	3.39	3	3.16
0.62 µg/ml, genetic background: Δrob	2.965	3.18	2.84	3.16	2.35	2.67	3.07	3.07
0.62 µg/ml, genetic background: ΔsoxS	3.36	3.32	3.16	2.9	2.8	2.92	3.19	3.09
1.2 µg/ml, genetic background: wild type	2.94	3.142	2.883	3.141	2.99	3	3.051	3.08
1.2 µg/ml, genetic background: ΔmarA	3.63	2.8	3.21	3.27	2.97	2.7	3.41	3.2971
1.2 µg/ml, genetic background: Δrob	3.1	3.17	2.74	3.35	2.1	2.56	3.08	3.29
1.2 µg/ml, genetic background: ΔsoxS	3.47	3.01	2.94	2.959	2.8	2.87	2.85	3.19
2.5 µg/ml, genetic background: wild type	2.88	3.17	3.26	3.08	3.18	3.08	3.08	3.122
2.5 µg/ml, genetic background: ΔmarA	3.66	3.97	4.04	3.42	3.79	4.12	3.25	3.21
2.5 µg/ml, genetic background: Δrob	3.09	3.32	3.36	3.38	2.72	2.91	2.96	3.23
2.5 µg/ml, genetic background: ΔsoxS	3.29	3.21	3.29	2.8	3.08	3.24	3	3.16
5 µg/ml, genetic background: wild type	2.76	3.02	3.09	3	2.7	2.92	2.61	2.85
5 µg/ml, genetic background: ΔmarA	3.35	3.67	3.31	3.2	2.67	3.08	3.22	3.08
5 µg/ml, genetic background: Δrob	3.13	3.19	3.03	3.16	2.22	2.61	2.99	3.17
5 µg/ml, genetic background: ΔsoxS	3.26	3.02	3.06	2.57	2.76	3.12	2.76	2.97

Cc1cc(NS(=O)(=O)c2ccc(N)cc2)no1 [Sulfamethoxazole]
growth
Details	reporter plasmid: EVC	reporter plasmid: acrABp	reporter plasmid: marRABp	reporter plasmid: micFp	reporter plasmid: ompFp	reporter plasmid: robp	reporter plasmid: soxSp	reporter plasmid: tolCp
3.2 µg/ml, genetic background: wild type	2.9	3.21	2.96	3.13	2.64	2.66	2.82	2.76
3.2 µg/ml, genetic background: ΔmarA	3.13	3.773	3.5	3.3	3.18	3.45	3.07	2.98
3.2 µg/ml, genetic background: Δrob	3.19	3.41	3.3	3.063	2.41	2.83	2.89	3.15
3.2 µg/ml, genetic background: ΔsoxS	3.19	3.56	3.25	2.83	2.84	3.1	3.22	3.18
6.3 µg/ml, genetic background: wild type	2.91	3.33	3.09	2.98	2.77	2.82	2.79	2.785
6.3 µg/ml, genetic background: ΔmarA	3.38	4.17	3.66	3.31	3.27	3.76	2.87	3.13
6.3 µg/ml, genetic background: Δrob	3.03	3.449	3.31	3.04	2.67	2.86	2.75	3.002
6.3 µg/ml, genetic background: ΔsoxS	3.1	3.35	3.36	2.79	2.83	3.33	3.09	3.1
12.7 µg/ml, genetic background: wild type	2.91	3.15	3.15	2.95	2.64	2.87	3.02	2.99
12.7 µg/ml, genetic background: ΔmarA	3.29	4.27	3.52	3.31	3.07	3.58	3.09	2.99
12.7 µg/ml, genetic background: Δrob	3.01	3.07	3.26	3.01	2.26	2.56	2.86	3.208
12.7 µg/ml, genetic background: ΔsoxS	3.2	3.26	3.07	2.77	2.69	3.03	2.88	3.29
25.3 µg/ml, genetic background: wild type	2.75	2.95	2.81	2.6	2.26	2.529	2.63	2.8
25.3 µg/ml, genetic background: ΔmarA	2.8	3.3	2.72	2.72	2.15	3.27	2.33	2.54
25.3 µg/ml, genetic background: Δrob	2.81	1.92	2.55	2.56	1.54	1.94	2.29	2.902
25.3 µg/ml, genetic background: ΔsoxS	3.011	2.31	2.32	2.14	1.77	2.1	2.36	3.01

These are raw signals, not scaled to a control.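 Maximum concentrations were near the MIC for antimicrobials, 500 µM for most other compounds, and as high as 1 mM for known inducer-like compounds. Deletion strains began with a tenfold smaller inoculum, and wells with growth under 10% of the overall median counted as non-growing.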
